{"source": "the supplement of paper PMC8007513", "note": "Some of the results follow. Most values come without repeats; read them as rough.", "data": [{"test_system": "Saccharomyces cerevisiae BY4743", "test": "growth (OD600) relative to untreated control; higher = less growth inhibition", "conditions": "compound concentration: 133 uM; 20 h", "experimental": "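NMCCC compounds (133 uM, no IPBC) tested alone against Saccharomyces cerevisiae BY4743 in YPD, 96-well plates, starting OD600 ~0.1. Growth was read as OD600 at 20 h and expressed as % of the untreated control. Single pass.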", "units": {"growth": "%"}, "values": [{"smiles": "CC(=O)Nc1nc(COC(=O)CNC(N)=O)cs1", "growth": 99.4}, {"smiles": "CC/1=C/N2C(=O)\\C=C(NC3CC(C)(C)NC(C)(C)C3)/N=C2/C=C1", "growth": 101}, {"smiles": "CCN(CC)S(=O)(=O)c1cc(-c2nnc(O)c3ccccc23)ccc1C", "growth": 101}, {"smiles": "CN1/C=C(\\C=C/C1=O)/C2=N/N(C(O2)C3=CC=C(Cl)C=C3Cl)C(C)=O", "note": "(stereo not drawn)", "growth": 94.4}, {"smiles": "COC/1=C/C(=O)N(/N=C1C(=O)NC2=CC=C(F)C(=C2)C(F)(F)F)C3=CC=C(C)C=C3", "growth": 95.2}, {"smiles": "COc1nccc(N(C)C)c1NC(=O)c1cnn(-c2ccccc2)n1", "growth": 96}, {"smiles": "CCOC(=O)C1=NOC\\2=C1C(=O)N(C(C)C(=O)NC3=CC=CC(=C3C)Cl)C(=N2)\\C", "note": "(stereo not drawn)", "growth": 89.4}, {"smiles": "CCc1ccc(OC(C)C(=O)Nc2ccc3nsnc3c2)cc1", "note": "(stereo not drawn)", "growth": 102}, {"smiles": "COc1cc(OC)c(NS(=O)(=O)c2cc3c(cc2C)N(C(C)=O)CCO3)cc1Cl", "growth": 106}, {"smiles": "CNC(=O)\\C1=C(/NCC2=CC=CO2)C3=CC=CC=C3[S]1(=O)=O", "growth": 91.6}, {"smiles": "CCCc1ccc(C(O)CSc2nnc(O)n2C2CC2)cc1", "note": "(stereo not drawn)", "growth": 111}, {"smiles": "Cc1nc(SC(C)C(=O)N2CCNC2=O)c(C#N)c(C)c1C", "note": "(stereo not drawn)", "growth": 92}, {"smiles": "COC(=O)C1=CC=C(CN(C)C(=O)\\C2=N\\N(C(=O)CC2)C3=CC(=CC=C3C)C)C=C1", "growth": 104}, {"smiles": "COC(=O)c1c(C)[nH]c(C(=O)CN2CCN(c3nccs3)CC2)c1C", "growth": 94.8}, {"smiles": "COc1ccc(C(=O)OC(C)c2ccccc2Cl)cc1S(=O)(=O)N1CCCC1", "note": "(stereo not drawn)", "growth": 92.9}, {"smiles": "CSc1ncc(Cl)c(C(=O)N2CCN(Cc3csc(C)n3)CC2)n1", "growth": 89.5}, {"smiles": "CCOC(=O)c1c(-c2ccccc2)csc1NC(=O)CCSc1nnc(C)s1", "growth": 98.6}, {"smiles": "Nn1c(SCC(=O)NC(=O)NCc2ccccc2)nnc1C1CC1", "growth": 99.9}, {"smiles": "CCOc1ccccc1NC(=O)C(Sc1nc(N)cc(O)n1)c1ccccc1", "note": "(stereo not drawn)", "growth": 101}, {"smiles": "FC(F)(F)CNC(=O)C1=CC=CC=C1NC(=O)CN2C(=O)\\C=C/N(CC3=CC=CC=C3)C2=O", "growth": 106}, {"smiles": "CC\\C1=N\\N(CC(O)=O)C(=O)C2=CC3=C(C=CS3)[N]12", "growth": 100}, {"smiles": "COC1(C(=O)C(=O)Nc2ccccc2Cl)NC(C)(C)Cc2ccccc21", "note": "(stereo not drawn)", "growth": 64.9}, {"smiles": "CC(NC(=O)CSc1ncc(-c2ccccc2)nn1)c1ccccc1", "note": "(stereo not drawn)", "growth": 111}, {"smiles": "Cc1nc2ncnn2c(O)c1Cc1ccccc1Cl", "growth": 105}, {"smiles": "CCCN(C(=O)C(=O)c1c(C)n(C)c2ccccc12)c1ccc(F)cc1", "growth": 101}, {"smiles": "COc1ccc(NC(C)=O)cc1NC(=O)CN(C)Cc1ccc(C(C)(C)C)cc1", "growth": 108}, {"smiles": "FC1=CC=CC(=C1)COC2=CC=C(NC(=O)CN3\\C=C/C=C\\C3=O)C=C2Cl", "growth": 94}, {"smiles": "CC(=O)C1=C(C)OC(=C1)CCC(=O)OCC/2=C/C(=O)N/3\\C=C(Cl)/C=C\\C3=N2", "growth": 106}, {"smiles": "CN(C1CCCCC1)C(=O)\\C2=C\\C(=N/[S](=O)(=O)N2C)C3=CC=C(F)C=C3", "growth": 99.2}, {"smiles": "CCCCN1\\C(=N/[S](=O)(=O)C2=CC(=CC=C12)C(=O)NCCN3CCOCC3)C", "growth": 109}, {"smiles": "Cc1ccc(Cl)cc1N1C(=O)N(C)c2ccccc2S1(=O)=O", "growth": 83.4}, {"smiles": "CCOC(=O)c1csc(NC(=O)c2ccc3c(c2)NC(=O)C(C)S3)n1", "note": "(stereo not drawn)", "growth": 81.4}, {"smiles": "CCC1=CC=C(C=C1)C(CN[S](=O)(=O)\\C2=C\\C3=CC=CC=C3CC2)N(C)C", "note": "(stereo not drawn)", "growth": 108}, {"smiles": "CC(C)CCC(C)NC(=O)C1=CC2=C(C=C1Cl)N\\3CCCCCC3=N/[S]2(=O)=O", "note": "(stereo not drawn)", "growth": 114}, {"smiles": "COC(=O)c1cc(S(=O)(=O)N2CCN(C3CCCCC3)CC2)c[nH]1", "growth": 86.7}, {"smiles": "COC(=O)c1cc(C)nc2c1cnn2-c1ccc(F)cc1", "growth": 114}, {"smiles": "CCOC(F)(C(F)(F)F)C(F)(F)OC(F)(CC(F)(F)F)\\C1=N\\CCN1", "note": "(stereo not drawn)", "growth": 105}, {"smiles": "CC(C)CCNC(=O)c1ccc(Cn2c(C(F)(F)F)nc3cccnc32)cc1", "growth": 103}]}]}
